Results are given in words; binding and its absence hold for the method and conditions named. Binding seen in cells or lysates may run through a third protein. Some entries that bind do so weakly or less than the wild type.
Columns and labels:
Experiment in all cases: co-IP
[1] = biological target: GluA1^AADD (mouse GluA1 with S816/S818 replaced with alanine and S831/S845 with aspartate) (mouse) (UniProt P23818)
[2] = biological target: GluA1^DDDD (mouse GluA1 with S816, S818, S831 and S845 replaced with aspartate) (mouse) (UniProt P23818)
[3] = biological target: GluA1^DDAA (mouse GluA1 with S816/S818 replaced with aspartate and S831/S845 with alanine) (mouse) (UniProt P23818)
[4] = biological target: GluA1^AAAA (mouse GluA1 with S816, S818, S831 and S845 replaced with alanine) (mouse) (UniProt P23818)

By UniProt entry, the sequences of proteins in these tests, tags left out. Where a name states a change or a piece, a line headed by the entry shows the natural chain unless it says otherwise. Chains listed by the source or under a name are the forms on record and can include a tag or linker.
GluA1^AADD (mouse GluA1 with S816/S818 replaced with alanine and S831/S845 with aspartate) (P23818, form named): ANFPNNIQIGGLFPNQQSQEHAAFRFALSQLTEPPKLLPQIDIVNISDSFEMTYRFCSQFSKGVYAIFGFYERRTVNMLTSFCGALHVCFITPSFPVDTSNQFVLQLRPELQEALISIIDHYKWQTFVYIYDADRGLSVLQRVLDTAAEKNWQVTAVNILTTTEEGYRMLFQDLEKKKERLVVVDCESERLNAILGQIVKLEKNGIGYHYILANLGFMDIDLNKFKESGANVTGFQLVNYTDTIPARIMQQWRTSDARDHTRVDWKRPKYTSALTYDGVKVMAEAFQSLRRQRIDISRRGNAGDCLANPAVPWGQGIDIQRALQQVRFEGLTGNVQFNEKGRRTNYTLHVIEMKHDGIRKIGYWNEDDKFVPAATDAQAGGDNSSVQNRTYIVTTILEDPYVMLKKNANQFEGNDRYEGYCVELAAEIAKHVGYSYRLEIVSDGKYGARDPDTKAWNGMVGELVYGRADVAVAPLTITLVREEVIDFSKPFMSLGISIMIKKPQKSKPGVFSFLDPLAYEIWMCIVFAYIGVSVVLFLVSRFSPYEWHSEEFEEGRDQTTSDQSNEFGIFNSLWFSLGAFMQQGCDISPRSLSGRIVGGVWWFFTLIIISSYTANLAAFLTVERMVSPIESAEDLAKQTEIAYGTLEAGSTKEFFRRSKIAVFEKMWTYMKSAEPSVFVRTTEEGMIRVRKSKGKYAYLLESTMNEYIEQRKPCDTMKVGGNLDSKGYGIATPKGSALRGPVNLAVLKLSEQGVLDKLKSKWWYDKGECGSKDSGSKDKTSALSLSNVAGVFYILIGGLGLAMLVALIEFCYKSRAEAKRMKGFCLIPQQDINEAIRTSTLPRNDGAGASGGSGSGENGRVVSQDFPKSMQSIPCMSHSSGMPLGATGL
GluA1^DDDD (mouse GluA1 with S816, S818, S831 and S845 replaced with aspartate) (P23818, form named): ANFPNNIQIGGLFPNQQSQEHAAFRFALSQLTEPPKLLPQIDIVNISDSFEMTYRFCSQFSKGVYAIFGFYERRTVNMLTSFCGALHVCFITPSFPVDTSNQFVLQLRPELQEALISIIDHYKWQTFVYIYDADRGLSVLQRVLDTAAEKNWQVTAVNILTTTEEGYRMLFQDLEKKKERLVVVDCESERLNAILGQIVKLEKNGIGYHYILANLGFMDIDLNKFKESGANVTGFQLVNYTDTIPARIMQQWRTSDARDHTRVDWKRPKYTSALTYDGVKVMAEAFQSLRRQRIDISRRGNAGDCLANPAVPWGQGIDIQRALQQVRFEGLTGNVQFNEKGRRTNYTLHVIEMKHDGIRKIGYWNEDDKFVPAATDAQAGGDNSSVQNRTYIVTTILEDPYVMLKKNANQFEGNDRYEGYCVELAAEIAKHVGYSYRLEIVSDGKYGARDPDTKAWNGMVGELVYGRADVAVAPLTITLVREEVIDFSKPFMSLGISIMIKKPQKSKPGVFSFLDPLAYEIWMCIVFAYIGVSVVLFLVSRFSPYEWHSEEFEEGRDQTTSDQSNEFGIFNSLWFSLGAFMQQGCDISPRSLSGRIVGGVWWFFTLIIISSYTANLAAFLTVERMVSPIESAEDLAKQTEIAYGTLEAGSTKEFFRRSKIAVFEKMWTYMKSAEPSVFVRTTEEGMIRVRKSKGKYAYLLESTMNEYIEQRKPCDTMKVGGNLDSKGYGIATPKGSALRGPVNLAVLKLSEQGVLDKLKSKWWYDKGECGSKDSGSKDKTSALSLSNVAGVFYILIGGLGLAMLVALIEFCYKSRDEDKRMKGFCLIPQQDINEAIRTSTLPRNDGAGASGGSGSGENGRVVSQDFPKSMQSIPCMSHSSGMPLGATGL
GluA1^DDAA (mouse GluA1 with S816/S818 replaced with aspartate and S831/S845 with alanine) (P23818, form named): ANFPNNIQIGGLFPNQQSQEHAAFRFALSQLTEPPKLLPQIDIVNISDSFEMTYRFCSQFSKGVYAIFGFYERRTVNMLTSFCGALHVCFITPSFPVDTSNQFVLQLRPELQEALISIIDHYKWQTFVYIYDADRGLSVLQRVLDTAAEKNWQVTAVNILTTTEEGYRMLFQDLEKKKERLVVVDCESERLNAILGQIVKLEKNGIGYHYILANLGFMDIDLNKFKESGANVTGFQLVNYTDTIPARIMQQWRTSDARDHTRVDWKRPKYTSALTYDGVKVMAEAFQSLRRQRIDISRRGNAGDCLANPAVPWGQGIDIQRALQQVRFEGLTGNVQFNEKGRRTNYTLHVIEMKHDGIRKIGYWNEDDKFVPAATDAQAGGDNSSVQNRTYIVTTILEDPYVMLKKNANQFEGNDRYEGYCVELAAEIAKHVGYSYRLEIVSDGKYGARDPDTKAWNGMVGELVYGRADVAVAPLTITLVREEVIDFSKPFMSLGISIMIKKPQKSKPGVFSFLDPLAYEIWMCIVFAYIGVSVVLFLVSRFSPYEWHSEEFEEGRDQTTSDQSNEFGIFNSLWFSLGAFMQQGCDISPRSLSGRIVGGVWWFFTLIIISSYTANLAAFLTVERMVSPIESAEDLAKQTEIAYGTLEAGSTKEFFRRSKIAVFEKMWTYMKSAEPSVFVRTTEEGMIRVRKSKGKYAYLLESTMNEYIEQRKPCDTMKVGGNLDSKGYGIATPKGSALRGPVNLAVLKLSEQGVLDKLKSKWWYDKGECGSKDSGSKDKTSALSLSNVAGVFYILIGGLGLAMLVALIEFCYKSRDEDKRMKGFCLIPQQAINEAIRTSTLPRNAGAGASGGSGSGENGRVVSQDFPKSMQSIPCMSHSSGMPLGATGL
GluA1^AAAA (mouse GluA1 with S816, S818, S831 and S845 replaced with alanine) (P23818, form named): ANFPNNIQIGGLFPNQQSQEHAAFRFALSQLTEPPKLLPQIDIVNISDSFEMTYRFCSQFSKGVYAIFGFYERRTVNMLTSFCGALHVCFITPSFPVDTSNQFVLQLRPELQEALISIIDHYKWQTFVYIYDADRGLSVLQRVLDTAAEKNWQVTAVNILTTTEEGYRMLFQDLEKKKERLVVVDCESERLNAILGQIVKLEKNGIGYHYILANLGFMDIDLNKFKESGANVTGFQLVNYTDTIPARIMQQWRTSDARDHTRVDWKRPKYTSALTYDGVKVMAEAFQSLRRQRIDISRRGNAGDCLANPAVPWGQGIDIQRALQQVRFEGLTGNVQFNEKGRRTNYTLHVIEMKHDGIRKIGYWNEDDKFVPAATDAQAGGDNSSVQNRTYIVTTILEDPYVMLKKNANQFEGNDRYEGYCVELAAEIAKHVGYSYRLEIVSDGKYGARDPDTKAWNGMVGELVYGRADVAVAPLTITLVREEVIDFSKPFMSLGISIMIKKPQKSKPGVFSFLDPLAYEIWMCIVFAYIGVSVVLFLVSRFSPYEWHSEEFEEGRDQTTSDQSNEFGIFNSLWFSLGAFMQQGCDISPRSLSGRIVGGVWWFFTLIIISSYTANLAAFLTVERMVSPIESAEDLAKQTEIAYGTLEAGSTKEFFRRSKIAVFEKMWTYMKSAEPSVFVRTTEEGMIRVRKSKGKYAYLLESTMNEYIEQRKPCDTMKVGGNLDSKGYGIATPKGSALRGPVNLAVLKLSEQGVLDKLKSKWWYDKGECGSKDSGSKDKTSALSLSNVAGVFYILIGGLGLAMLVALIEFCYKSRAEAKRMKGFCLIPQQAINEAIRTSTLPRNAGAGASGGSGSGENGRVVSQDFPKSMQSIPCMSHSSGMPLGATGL

Measured: binding

B1: stargazin (STG), co-expressed in HEK293 cells (protein, UniProt O88602 1-323)
chain: MGLFDRGVQMLLTTVGAFAAFSLMTIAVGTDYWLYSRGVCKTKSVSENETSKKNEEVMTHSGLWRTCCLEGNFKGLCKQIDHFPEDADYEADTAEYFLRAVRASSIFPILSVILLFMGGLCIAASEFYKTRHNIILSAGIFFVSAGLSNIIGIIVYISANAGDPSKSDSKKNSYSYGWSFYFGALSFIIAEMVGVLAVHMFIDRHKQLRATARATDYLQASAITRIPSYRYRYQRRSRSSSRSTEPSHSRDASPVGVKGFNTLPSTEISMYTLSRDPLKAATTPTATYNSDRDNSFLQVHNCIQKDSKDSLHANTANRRTTPV
binds: [1] | [2] | [3] | [4]

Source: doi:10.1101/2020.11.12.379867
